Experimental data as given in article PMC7956269.

Chains of the proteins cited; added tags and fusions are not shown. Residues count along the entry.
UniProt Q13148: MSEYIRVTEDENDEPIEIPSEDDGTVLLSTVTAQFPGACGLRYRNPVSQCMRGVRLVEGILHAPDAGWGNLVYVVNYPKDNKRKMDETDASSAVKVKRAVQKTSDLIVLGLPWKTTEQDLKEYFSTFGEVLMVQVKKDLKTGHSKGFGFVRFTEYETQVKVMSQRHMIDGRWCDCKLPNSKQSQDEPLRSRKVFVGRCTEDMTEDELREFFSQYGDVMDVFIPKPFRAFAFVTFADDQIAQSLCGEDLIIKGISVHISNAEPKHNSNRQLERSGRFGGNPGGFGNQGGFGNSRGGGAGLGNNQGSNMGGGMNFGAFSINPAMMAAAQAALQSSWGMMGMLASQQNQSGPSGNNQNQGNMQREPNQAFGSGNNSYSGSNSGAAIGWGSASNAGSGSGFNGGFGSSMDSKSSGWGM
UniProt Q9Y490: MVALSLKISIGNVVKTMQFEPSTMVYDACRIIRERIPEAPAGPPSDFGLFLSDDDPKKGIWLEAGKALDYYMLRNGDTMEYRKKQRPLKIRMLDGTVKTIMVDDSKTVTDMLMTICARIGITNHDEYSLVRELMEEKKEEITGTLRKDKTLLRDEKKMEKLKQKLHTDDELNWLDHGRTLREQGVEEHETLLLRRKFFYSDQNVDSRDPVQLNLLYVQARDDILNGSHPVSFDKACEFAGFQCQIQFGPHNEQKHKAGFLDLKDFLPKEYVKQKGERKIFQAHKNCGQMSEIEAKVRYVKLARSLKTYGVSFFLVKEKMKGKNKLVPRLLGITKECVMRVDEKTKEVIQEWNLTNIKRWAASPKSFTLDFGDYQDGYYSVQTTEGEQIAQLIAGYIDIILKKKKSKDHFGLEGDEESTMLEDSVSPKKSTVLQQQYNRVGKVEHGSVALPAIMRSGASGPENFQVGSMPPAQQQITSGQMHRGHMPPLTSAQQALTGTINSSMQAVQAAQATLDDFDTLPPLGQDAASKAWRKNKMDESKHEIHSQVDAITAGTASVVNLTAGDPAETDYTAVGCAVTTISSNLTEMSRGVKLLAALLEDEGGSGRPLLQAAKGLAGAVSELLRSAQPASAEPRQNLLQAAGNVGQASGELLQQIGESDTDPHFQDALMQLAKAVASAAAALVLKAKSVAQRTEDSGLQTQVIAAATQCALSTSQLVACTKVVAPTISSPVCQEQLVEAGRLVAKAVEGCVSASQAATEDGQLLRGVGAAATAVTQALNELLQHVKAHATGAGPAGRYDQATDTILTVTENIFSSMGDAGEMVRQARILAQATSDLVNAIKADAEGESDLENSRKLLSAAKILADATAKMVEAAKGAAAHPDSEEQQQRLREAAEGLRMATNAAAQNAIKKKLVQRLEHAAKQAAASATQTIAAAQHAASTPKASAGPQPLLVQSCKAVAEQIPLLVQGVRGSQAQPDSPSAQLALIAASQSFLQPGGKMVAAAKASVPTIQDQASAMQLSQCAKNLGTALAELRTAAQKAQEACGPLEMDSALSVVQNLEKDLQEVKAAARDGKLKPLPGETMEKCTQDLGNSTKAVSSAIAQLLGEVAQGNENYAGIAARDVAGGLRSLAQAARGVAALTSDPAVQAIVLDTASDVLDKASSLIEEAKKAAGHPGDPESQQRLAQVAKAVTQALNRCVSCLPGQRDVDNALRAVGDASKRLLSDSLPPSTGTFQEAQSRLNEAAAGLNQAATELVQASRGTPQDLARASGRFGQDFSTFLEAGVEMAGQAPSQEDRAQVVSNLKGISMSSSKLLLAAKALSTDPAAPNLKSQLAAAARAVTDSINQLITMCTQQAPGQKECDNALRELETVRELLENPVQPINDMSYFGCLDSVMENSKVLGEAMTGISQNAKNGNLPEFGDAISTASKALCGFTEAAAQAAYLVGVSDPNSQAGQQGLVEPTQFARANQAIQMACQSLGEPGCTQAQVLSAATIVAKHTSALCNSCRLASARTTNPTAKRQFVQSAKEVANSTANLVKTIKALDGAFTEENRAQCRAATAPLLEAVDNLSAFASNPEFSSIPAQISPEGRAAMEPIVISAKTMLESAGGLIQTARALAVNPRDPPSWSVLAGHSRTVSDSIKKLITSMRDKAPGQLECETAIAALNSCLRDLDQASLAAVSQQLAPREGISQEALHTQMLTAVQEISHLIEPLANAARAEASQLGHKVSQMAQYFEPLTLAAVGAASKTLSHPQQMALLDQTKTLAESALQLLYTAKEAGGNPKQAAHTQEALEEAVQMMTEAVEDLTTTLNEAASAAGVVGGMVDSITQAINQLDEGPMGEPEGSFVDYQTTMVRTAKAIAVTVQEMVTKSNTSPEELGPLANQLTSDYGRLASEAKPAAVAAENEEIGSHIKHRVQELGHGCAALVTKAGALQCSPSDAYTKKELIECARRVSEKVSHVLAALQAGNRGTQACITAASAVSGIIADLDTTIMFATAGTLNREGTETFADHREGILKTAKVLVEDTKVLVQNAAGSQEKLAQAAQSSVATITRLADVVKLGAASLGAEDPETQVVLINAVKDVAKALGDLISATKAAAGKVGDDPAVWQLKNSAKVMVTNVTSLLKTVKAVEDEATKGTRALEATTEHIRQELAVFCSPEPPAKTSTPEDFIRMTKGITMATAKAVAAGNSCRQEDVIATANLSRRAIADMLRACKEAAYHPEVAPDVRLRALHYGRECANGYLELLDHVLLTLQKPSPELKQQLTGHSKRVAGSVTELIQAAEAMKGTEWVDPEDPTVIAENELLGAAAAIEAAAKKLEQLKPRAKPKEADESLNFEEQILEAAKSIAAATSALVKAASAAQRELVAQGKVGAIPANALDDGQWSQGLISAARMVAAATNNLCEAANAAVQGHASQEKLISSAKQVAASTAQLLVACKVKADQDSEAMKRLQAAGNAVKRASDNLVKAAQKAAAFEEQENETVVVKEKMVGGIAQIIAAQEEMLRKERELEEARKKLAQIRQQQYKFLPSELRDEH
UniProt P68371: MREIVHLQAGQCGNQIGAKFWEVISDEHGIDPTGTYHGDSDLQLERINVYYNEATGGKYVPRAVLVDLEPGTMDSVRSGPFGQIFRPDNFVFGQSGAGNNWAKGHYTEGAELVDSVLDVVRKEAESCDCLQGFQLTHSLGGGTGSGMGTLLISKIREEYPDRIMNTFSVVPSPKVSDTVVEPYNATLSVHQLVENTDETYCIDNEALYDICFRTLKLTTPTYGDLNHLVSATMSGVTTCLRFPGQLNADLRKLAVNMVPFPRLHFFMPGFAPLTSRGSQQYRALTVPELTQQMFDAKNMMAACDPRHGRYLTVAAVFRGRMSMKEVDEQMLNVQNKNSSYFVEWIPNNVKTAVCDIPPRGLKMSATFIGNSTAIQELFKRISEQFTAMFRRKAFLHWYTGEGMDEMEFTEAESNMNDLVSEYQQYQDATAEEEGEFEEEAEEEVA
UniProt O14980: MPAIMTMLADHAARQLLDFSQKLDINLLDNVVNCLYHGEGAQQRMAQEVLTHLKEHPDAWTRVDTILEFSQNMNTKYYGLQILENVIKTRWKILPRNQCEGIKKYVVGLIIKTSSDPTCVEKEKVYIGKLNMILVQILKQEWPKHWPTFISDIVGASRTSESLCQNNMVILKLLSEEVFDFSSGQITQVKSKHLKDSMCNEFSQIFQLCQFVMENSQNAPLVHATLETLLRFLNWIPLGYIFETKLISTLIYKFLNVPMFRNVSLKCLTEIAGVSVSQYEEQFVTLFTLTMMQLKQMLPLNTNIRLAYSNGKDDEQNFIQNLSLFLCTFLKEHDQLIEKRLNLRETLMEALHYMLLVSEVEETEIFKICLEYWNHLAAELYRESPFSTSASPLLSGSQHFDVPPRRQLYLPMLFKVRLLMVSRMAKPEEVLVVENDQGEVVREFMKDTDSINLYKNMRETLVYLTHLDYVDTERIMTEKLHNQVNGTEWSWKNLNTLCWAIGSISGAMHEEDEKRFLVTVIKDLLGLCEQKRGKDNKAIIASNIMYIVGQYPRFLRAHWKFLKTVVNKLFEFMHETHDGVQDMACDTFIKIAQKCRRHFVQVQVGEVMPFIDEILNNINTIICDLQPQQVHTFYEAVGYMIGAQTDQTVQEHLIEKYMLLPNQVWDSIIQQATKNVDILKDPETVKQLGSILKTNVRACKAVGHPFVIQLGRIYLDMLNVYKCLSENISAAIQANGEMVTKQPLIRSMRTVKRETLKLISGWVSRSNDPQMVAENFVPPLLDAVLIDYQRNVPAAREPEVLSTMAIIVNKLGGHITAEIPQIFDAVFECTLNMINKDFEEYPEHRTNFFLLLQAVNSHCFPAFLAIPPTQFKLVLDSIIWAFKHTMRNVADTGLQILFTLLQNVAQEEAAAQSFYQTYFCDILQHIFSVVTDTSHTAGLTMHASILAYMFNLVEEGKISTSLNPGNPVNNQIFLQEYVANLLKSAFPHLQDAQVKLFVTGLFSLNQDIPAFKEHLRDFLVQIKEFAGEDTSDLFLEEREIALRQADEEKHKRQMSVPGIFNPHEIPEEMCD
UniProt O95365: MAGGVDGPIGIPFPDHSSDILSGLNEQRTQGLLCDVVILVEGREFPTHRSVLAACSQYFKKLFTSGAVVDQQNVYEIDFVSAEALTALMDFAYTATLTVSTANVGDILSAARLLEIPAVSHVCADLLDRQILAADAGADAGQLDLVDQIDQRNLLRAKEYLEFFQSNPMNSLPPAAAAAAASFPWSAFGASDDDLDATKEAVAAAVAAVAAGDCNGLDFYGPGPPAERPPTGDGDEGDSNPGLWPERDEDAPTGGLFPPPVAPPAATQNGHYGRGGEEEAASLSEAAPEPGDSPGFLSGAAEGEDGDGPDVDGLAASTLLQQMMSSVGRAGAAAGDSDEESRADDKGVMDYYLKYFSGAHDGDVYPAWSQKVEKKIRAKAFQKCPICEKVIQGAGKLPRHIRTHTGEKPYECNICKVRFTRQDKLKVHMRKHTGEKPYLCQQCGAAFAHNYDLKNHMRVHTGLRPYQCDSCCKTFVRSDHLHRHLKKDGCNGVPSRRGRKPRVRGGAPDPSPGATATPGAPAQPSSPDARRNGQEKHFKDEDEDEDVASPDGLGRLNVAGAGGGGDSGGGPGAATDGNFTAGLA
UniProt Q8N3U4: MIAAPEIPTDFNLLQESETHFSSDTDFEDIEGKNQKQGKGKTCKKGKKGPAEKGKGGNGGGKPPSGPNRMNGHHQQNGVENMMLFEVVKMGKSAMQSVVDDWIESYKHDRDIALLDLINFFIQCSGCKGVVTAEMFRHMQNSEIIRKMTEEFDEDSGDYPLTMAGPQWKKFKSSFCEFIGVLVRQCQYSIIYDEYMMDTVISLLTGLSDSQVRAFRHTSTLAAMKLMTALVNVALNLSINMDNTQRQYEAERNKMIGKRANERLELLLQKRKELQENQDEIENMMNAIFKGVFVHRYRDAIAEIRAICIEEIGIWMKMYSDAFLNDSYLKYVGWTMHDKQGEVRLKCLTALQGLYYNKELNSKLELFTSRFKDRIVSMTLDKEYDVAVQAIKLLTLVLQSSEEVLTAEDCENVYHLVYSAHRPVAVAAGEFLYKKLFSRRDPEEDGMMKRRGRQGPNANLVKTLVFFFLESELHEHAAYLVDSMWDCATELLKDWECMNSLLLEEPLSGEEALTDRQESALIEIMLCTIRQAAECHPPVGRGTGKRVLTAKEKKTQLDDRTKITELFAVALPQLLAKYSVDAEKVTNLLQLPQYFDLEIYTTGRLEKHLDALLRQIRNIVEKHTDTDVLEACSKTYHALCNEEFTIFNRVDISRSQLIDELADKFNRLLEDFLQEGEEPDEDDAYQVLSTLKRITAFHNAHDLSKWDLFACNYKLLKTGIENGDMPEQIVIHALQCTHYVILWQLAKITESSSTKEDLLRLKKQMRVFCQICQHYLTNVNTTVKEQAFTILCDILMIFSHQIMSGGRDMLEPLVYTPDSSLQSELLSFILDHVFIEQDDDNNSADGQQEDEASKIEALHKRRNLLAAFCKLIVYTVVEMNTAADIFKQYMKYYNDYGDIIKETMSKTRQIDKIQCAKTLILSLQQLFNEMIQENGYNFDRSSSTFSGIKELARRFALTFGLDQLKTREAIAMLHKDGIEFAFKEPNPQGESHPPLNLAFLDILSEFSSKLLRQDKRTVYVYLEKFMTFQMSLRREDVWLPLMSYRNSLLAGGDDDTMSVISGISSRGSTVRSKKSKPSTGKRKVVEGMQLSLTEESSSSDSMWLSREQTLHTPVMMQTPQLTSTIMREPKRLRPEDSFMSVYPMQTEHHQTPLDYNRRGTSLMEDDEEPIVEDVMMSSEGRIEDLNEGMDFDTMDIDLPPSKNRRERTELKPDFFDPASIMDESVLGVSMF
UniProt Q3ZCQ8, residues 45-353: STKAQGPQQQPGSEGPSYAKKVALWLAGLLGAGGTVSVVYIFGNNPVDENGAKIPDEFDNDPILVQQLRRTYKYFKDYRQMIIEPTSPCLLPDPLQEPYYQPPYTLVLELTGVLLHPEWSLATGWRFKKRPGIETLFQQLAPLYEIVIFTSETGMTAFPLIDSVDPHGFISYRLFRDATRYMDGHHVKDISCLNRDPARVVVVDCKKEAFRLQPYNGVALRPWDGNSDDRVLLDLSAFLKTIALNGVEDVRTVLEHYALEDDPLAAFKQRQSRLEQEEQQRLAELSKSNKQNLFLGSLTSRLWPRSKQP

molecular target: Biotin-FOXC1 (mouse) (UniProt Q61572); assay: affinity purification with mass spectrometry; streptavidin-agarose precipitation of biotinylated FOXC1 from nuclear extract of stable HEK293T cells (293T-Biotin-FOXC1); IP350 buffer (350 mM NaCl, 20 mM Tris-HCl pH 7.5, 0.5% NP40, 1 mM EDTA, 10% glycerin); SDS-PAGE, LC-ESI-MS/MS; proteins of the 293T-Biotin control deducted

Row | Substance | binding
1 | Stk33 (from UniProt Q9BYT3 1-514) | binds
2 | Tardbp (from UniProt Q13148 1-414) | binds
3 | Timm44 (human (endogenous in HEK293T)) | binds
4 | Tln1 (from UniProt Q9Y490 1-2541) | binds
5 | Tuba1b (from UniProt P68363 1-451) | binds
6 | Tubb4b (from UniProt P68371 1-445) | binds
7 | Ubap2l (from UniProt Q14157 1-1087) | binds
8 | Ubqln2 (from UniProt Q9UHD9 1-624) | binds
9 | Xpo1 (from UniProt O14980 1-1071) | binds
10 | Zbtb7a (from UniProt O95365 1-584) | binds
11 | Zfp346 (human (endogenous in HEK293T)) | binds
12 | Zfp512 (human (endogenous in HEK293T)) | binds

The next lines start with the values.

Row | binding | Substance
13 | binds | Sry (from UniProt Q05066 1-204)
14 | binds | Stag2 (from UniProt Q8N3U4 1-1231)
15 | binds | Tcerg1 (from UniProt O14776 1-1098)
16 | binds | Timm50 (from UniProt Q3ZCQ8 45-353)
17 | binds | Top1 (from UniProt P11387 1-765)
18 | binds | Trim28 (from UniProt Q13263 1-835)
19 | binds | Yy1 (from UniProt P25490 1-414)
20 | binds | Zfp768 (human (endogenous in HEK293T))

These are yes or no findings as the source states them, for the method shown. In cells and extracts the contact can be indirect. These calls come from enrichment with a bait or labelling near it, and not all partners need be listed.
